Data on 4 substances can be found in paper PMC7723048.

By UniProt entry, the sequences of proteins in these tests, tags left out.
UniProt O60934: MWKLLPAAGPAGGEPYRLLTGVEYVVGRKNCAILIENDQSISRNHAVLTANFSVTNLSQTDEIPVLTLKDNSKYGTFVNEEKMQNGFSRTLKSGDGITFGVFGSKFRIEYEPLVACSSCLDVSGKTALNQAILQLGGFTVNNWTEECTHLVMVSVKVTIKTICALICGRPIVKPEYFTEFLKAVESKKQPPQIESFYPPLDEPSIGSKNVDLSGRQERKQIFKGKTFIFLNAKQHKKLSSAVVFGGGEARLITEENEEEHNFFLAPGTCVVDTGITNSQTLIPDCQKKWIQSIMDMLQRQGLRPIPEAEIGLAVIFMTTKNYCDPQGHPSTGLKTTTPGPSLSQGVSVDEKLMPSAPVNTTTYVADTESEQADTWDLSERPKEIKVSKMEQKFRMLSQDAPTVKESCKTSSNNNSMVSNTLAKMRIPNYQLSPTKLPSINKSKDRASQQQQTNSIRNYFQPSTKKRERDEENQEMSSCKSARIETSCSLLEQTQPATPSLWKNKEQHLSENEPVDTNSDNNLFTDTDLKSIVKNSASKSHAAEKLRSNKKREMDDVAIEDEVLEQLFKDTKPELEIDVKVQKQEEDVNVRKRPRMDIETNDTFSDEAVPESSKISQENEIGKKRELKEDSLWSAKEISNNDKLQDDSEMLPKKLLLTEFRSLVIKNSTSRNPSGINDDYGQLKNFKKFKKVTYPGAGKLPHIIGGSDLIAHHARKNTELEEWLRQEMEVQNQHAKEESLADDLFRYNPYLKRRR
UniProt P09874: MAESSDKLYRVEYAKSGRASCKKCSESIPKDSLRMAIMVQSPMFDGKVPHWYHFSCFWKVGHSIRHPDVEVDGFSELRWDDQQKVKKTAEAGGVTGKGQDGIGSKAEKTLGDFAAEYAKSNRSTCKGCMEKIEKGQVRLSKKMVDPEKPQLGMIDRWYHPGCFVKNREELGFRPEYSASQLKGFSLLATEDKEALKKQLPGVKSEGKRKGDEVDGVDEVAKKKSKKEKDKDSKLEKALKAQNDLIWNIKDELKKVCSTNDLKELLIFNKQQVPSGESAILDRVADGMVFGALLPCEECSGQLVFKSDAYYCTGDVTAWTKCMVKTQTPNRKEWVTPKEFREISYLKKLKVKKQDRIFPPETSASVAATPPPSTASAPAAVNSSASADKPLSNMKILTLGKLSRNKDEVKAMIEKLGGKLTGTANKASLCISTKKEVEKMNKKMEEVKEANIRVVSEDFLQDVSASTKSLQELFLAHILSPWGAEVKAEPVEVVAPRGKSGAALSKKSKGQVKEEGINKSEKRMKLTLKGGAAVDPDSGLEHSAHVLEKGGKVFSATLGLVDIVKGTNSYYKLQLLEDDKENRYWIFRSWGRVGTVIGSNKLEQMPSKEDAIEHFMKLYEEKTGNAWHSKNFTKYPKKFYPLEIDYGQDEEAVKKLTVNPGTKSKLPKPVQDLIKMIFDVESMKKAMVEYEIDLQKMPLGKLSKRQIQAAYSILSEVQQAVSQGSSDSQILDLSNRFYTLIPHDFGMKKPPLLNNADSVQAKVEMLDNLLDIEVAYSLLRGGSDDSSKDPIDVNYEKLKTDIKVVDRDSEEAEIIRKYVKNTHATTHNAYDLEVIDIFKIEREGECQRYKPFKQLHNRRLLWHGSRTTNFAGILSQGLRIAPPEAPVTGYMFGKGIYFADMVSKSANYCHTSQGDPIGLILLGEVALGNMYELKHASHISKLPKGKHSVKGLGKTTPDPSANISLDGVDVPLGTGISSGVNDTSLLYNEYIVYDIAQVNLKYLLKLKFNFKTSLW

Results are given in words; binding and its absence hold for the method and conditions named. Binding seen in cells or lysates may run through a third protein. Some results given as binding are weak or reduced against the parent protein; the word gives no strength. For some assays here: Where a sequence is shown, tags or fusion partners need not be part of it.

Assay [1] deals with T1, His-tagged BCAS2 bacterial fusion protein (UniProt O75934).
T1 sequence: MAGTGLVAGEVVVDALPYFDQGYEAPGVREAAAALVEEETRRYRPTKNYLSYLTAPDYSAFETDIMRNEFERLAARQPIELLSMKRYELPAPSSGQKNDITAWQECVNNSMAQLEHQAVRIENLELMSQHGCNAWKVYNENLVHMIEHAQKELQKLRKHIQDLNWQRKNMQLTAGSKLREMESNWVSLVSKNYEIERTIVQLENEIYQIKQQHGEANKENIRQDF
Briefly: pull-down; in vitro pull-down of bacteria-produced fusion proteins; complexes pulled down by Ni-NTA agarose beads (His-BCAS2), GST-NBS1 detected by anti-GST immunoblot.

Another assay deals with T2, GST-BCAS2 full-length (UniProt O75934).
T2 sequence: T1 sequence
Briefly: pull-down; glutathione resin-bound GST-BCAS2 (full-length or deletion proteins, from bacteria) incubated with lysates of HEK 293T cells transfected with V5-NBS1 (full-length or deletion clones); anti-V5 western blot; only the target purified.

The next assay concerns the target T3, FLAG-tagged BCAS2 (UniProt O75934).
T3 sequence: T1 sequence
Briefly: co-IP; HEK 293T cells co-transfected with V5-NBS1 and FLAG-BCAS2; cell extracts precipitated with anti-FLAG antibody, immunoblot. (Immunoblotting shows a protein as a band on a membrane.)

Assay [2] has as its target T4, endogenous BCAS2 (HEK 293T) (human (endogenous in HEK 293T)) (UniProt O75934).
T4 sequence: T1 sequence
Kind of assay: co-IP; endogenous proteins in HEK 293T cells; precipitated with an anti-BCAS2 antibody.

Assay [3] addresses T5, BCAS2 precipitated by an anti-BCAS2 antibody (cells not stated) (UniProt O75934).
T5 sequence: T1 sequence
Kind of assay: co-IP; proteins co-immunoprecipitated by an anti-BCAS2 antibody; data not shown, cells not given.

On to “GST-NBS1 bacterial fusion protein (from UniProt O60934 1-754)”, for which the binding entry in assay [1] was “binds”.
On to “V5-tagged NBS1 (full-length) (from UniProt O60934 1-754)”, for which the binding result with GST-BCAS2 full-length and with FLAG-tagged BCAS2 was “binds” in each case.
Consider “endogenous NBS1 (HEK 293T) (from UniProt O60934 1-754)”, for which, in assay [2], the binding entry is “binds”.
Regarding “poly ADP-ribose polymerase-1 (from UniProt P09874 1-1014)”, in assay [3], the binding result is given as “binds”.
